Laboratory results: article PMC3808315

Tested on: GST-GmbZIP123 (Glycine max (soybean))
Test: EMSA
Conditions: DIG Gel Shift kit (Roche) per manufacturer; pH and temperature not stated; recombinant protein; protein details: N-terminal GST (pGEX-6p-1); label: DIG

Binding result, no binding:
AATGTTCTAACTGACAAAAGTCCCTACCTTGC (double strand) [AtSUC1-b mutant]
TGTATGATATGGTCAAAAAAATTTGGATTAGGAA (double strand) [AtcwINV6-a mutant]
GAGTCCAGACAAAATCTTTATTAACTCTGGTTGAAATCTTGAAAAGTAAAAATAT (double strand) [AtcwINV1-a mutant]
TAATGACCTACTGCCAAAAGTCCTCACATTGTCA (double strand) [AtSUC5-b mutant]
GACAATTTCAGGTCGAAAACTCCAAAACGGCAACGCGTGGCT (double strand) [AtcwINV3-a mutant]
AAAGACTTGGAAAACAAGGATAACATTTGGTTCTAAAATATATGGAAAAGAAAGATAGC (double strand) [AtSUC1-a mutant]

The exact form of at least one protein or probe is not confirmed. Negatives hold for the conditions tested. At least one verdict rests on a figure or table, not on a statement of the authors.
